1 molecule from US20190002562A1 (INTERVET, published 2019) can be followed below.

These are yes or no findings as the source states them, for the method shown. Some entries that bind do so weakly or less than the wild type. Sequences can lack the tags named with a protein.

For this experiment, the target named is T1, HIS-tagged canine PD-1 ECD protein (canine).
T1 construct: also called PD-1 HIS; canine PD-1 ECD-HIS tagged protein; not shown: HIS tag
T1 chain: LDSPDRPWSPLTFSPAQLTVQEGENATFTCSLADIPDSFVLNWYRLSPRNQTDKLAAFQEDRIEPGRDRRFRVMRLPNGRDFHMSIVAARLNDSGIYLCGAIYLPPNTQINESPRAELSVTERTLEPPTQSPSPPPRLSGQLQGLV
The experiment in a line: ELISA on the extracellular domain of canine PD-1. In general terms: An ELISA detects its analyte on a solid surface through an enzyme-linked reagent.

B1: 3B6 VH3 IgGB / VL3 (antibody, V domains shown)
VH: EVQLVQSGGDLVKPGGSVRLSCVASGYTFTTYGMSWVRQAPGKGLQWMGWINIYSGIPTYADDFKGRFTFSLDTAKNTAYLQLNSLRAEDTAVYYCTRFDGPDYWGQGTLVTVSS
VL: DIVMTQTPLSLSVSPGEPASMSCKSSQSLLNSVNQKNYLAWYRQKPGQSPQVLVYFASARVSGVPDRFIGSGSGTDFTLRISRVEADDLGVYYCQQYFSTPLTFGQGTKLELKR
notes: copies: 2 + 2
As for B1, the binding result is listed as “binds”.
